Results taken from the supplement of paper PMC12823440, “Inhibitors supercharge kinase turnover through native proteolytic circuits” (Nature, 2025).
This is one part of the list. Hit calls seldom repeat between salt and free forms of one compound.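 Kinases were expressed as nanoluciferase fusions in K562 cells and luminescence was read every 4 h between 2 and 18 h as percent of control, DMSO set to 100% and a positive control to 0%. A time point counts as decreased when the signal drops significantly (2 sigma). The hit call is the authors' own, does not follow from the count of time points alone, and its rule is not shown.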

Amino acid sequences for entries named in this document (tags omitted). A change or cut given only in a name is not applied to a line headed by its entry.
UniProt Q05397, whole entry, looked up: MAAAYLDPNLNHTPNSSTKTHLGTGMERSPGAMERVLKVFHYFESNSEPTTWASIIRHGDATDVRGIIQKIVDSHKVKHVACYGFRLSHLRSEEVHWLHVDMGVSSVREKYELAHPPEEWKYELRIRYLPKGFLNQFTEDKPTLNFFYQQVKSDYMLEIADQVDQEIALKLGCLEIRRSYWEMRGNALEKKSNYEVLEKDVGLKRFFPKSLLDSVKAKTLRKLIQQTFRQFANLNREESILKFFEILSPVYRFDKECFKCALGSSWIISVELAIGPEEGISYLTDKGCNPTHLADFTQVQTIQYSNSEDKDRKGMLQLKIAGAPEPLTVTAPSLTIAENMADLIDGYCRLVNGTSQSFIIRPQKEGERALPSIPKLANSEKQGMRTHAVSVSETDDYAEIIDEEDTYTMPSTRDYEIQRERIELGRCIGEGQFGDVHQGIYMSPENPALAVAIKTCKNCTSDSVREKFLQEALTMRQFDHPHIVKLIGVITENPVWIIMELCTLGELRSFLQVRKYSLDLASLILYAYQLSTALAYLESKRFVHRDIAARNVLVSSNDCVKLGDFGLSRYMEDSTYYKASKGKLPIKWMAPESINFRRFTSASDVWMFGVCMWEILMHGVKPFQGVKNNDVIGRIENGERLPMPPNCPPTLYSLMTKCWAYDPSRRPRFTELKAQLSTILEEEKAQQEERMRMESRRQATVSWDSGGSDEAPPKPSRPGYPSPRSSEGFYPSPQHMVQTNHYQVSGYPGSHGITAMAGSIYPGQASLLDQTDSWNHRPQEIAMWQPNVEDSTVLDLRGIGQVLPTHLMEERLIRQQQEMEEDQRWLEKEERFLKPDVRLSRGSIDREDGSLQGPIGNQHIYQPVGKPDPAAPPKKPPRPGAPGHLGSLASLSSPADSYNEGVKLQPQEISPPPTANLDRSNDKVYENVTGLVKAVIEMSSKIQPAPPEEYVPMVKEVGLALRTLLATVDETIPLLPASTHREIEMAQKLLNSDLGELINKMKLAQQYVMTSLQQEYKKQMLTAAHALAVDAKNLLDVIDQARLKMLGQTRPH
UniProt Q9BRS2: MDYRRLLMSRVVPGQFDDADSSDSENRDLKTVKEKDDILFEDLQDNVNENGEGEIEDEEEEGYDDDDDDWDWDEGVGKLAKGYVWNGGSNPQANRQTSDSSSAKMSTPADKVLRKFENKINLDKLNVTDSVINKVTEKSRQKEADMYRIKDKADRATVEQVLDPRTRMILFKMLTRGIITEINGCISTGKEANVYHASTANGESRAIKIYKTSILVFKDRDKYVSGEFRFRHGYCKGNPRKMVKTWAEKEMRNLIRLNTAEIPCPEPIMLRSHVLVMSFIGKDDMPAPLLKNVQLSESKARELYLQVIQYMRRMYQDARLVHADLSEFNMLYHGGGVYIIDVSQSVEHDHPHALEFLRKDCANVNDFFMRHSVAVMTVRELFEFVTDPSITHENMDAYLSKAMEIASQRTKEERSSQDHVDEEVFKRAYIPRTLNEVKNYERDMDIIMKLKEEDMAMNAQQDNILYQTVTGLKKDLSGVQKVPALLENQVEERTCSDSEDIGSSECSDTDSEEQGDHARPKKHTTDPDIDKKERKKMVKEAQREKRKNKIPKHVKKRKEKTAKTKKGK
UniProt Q01974, whole entry: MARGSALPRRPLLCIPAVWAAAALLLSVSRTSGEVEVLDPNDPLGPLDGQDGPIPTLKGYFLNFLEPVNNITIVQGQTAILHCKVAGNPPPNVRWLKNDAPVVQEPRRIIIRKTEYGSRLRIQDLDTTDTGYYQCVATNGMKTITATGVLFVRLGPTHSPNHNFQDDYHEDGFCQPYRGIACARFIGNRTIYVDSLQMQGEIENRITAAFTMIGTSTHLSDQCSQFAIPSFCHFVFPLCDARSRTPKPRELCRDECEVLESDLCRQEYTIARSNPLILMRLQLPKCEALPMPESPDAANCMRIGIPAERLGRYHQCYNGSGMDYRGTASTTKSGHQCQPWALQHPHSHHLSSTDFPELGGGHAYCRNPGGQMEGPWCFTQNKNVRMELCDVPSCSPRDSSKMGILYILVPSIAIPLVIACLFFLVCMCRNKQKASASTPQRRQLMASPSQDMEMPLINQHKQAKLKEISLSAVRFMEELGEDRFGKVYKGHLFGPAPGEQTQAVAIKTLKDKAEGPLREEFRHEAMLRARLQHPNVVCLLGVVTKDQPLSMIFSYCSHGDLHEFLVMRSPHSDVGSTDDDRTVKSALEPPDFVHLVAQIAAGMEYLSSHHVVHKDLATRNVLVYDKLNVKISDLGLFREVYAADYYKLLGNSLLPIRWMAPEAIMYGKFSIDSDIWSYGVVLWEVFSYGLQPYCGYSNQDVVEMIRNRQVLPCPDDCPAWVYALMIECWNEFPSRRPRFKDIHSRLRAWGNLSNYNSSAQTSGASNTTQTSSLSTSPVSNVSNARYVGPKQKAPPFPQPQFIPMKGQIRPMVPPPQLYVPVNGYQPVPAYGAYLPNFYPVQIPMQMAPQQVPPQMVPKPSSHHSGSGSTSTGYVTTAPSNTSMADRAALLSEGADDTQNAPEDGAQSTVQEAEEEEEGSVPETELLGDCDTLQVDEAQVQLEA
UniProt Q9Y6E0: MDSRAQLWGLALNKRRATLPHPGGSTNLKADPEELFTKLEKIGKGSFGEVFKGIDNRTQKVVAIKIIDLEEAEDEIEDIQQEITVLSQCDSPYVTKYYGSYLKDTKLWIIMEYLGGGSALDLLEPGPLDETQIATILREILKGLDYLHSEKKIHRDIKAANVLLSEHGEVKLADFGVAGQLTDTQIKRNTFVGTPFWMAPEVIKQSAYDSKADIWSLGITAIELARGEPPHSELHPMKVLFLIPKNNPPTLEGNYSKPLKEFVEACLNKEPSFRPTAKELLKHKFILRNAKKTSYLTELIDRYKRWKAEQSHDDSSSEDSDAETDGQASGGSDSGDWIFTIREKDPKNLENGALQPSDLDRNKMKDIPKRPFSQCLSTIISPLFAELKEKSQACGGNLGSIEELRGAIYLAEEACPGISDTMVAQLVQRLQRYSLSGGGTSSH
UniProt Q15208: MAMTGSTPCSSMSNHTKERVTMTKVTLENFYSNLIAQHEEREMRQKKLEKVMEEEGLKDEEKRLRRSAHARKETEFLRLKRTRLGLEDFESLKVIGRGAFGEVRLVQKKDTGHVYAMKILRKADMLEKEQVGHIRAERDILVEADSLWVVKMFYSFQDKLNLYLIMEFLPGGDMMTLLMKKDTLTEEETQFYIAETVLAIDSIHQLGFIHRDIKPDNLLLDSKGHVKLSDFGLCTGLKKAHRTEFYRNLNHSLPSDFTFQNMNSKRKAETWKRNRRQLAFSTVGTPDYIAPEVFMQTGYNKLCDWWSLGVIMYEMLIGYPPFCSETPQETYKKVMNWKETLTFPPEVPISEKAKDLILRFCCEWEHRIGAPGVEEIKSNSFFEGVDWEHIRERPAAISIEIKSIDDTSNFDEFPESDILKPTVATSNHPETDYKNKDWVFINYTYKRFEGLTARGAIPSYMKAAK
UniProt P42680: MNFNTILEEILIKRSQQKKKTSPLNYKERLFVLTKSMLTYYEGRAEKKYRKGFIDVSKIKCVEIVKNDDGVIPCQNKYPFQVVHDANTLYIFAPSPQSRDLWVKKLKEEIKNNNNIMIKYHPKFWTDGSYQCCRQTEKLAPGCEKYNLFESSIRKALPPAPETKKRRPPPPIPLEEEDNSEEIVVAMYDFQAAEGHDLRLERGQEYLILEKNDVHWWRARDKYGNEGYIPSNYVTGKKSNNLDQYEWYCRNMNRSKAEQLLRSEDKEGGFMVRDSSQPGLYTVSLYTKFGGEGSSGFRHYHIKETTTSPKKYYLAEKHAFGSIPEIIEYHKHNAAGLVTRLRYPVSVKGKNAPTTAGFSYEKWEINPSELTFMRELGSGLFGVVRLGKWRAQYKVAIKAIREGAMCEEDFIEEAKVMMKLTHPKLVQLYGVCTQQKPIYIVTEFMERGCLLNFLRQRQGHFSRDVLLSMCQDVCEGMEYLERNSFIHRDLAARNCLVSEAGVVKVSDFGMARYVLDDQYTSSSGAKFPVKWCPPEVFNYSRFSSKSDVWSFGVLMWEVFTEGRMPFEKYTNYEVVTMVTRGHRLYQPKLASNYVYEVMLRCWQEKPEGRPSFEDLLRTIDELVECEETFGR
UniProt P29597: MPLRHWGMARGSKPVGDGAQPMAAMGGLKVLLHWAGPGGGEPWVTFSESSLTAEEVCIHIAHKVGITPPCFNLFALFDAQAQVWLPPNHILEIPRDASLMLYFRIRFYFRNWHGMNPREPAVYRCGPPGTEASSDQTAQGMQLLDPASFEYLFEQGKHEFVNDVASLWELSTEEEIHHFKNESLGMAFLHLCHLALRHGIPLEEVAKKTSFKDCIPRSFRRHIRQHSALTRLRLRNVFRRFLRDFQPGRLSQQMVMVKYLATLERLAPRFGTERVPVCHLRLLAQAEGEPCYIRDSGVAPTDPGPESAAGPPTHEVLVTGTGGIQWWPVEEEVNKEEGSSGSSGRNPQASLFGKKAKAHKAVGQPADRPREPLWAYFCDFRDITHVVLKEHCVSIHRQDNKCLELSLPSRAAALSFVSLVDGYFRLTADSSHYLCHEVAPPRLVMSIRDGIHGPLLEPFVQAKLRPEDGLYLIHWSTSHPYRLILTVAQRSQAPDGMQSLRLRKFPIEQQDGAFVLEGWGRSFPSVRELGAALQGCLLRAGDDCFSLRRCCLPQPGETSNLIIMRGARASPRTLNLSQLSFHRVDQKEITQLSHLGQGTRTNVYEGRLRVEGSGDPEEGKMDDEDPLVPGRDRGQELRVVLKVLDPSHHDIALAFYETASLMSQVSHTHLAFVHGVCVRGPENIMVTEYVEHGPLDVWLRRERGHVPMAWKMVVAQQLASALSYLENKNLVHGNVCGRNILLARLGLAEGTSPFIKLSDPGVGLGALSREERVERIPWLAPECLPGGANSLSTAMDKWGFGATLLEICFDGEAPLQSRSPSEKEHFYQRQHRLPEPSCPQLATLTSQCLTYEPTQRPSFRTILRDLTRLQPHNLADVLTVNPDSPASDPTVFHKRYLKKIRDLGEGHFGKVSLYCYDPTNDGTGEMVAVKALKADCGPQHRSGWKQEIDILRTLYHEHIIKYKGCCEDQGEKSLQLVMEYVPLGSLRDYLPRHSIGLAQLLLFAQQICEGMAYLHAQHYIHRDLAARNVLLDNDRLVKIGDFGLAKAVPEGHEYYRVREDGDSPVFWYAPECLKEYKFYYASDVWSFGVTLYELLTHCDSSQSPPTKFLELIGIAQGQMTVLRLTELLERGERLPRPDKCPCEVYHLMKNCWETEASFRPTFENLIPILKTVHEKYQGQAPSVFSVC
UniProt Q6PHR2: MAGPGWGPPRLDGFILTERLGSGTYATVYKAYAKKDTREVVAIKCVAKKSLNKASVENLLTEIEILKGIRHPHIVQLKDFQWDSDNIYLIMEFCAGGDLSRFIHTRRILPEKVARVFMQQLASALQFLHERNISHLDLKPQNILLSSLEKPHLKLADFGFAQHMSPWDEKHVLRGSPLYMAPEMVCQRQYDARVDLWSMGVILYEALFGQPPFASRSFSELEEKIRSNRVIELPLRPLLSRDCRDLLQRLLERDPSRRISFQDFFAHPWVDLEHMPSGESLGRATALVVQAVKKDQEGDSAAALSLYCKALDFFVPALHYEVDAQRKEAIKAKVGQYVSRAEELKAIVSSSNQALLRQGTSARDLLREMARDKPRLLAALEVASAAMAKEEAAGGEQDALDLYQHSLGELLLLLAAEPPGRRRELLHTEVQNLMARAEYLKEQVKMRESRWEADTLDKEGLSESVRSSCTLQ

Key:
Test in all cases: number of time points (of 5) at which kinase-Nluc abundance scored as decreased, DMSO-normalised (count); higher = more persistent destabilization
Details in all cases: K562; 2-18 h
PRKCA = PRKCA (UniProt P17252)
PTK2 = PTK2 (UniProt Q05397)
PTK2B = PTK2B (UniProt Q14289)
RAF1 = RAF1 (UniProt P04049)
[1] = biological target: RAF1_S257L (clone: RAF1_mut) (UniProt P04049)
RET = RET (UniProt P07949)
[2] = biological target: RET_M918T (clone: RET_mut) (UniProt P07949)
RIOK1 = RIOK1 (UniProt Q9BRS2)
RIPK1 = RIPK1 (UniProt Q13546)
RIPK2 = RIPK2 (UniProt O43353)
ROR2 = ROR2 (UniProt Q01974)
RPS6KA1 = RPS6KA1 (UniProt Q15418)
SPHK1 = SPHK1 (UniProt Q9NYA1)
SRC = SRC (UniProt P12931)
STK24 = STK24 (UniProt Q9Y6E0)
STK38 = STK38 (UniProt Q15208)
SYK = SYK (UniProt P43405)
TEC = TEC (UniProt P42680)
TYK2 = TYK2 (UniProt P29597)
ULK3 = ULK3 (UniProt Q6PHR2)

Compound | number of time points (PRKCA) | number of time points (PTK2) | number of time points (PTK2B) | number of time points (RAF1) | number of time points [1] | number of time points (RET) | number of time points [2] | number of time points (RIOK1) | number of time points (RIPK1) | number of time points (RIPK2) | number of time points (ROR2) | number of time points (RPS6KA1) | number of time points (SPHK1) | number of time points (SRC) | number of time points (STK24) | number of time points (STK38) | number of time points (SYK) | number of time points (TEC) | number of time points (TYK2) | number of time points (ULK3)
Cn1cc(-c2c[nH]c3ncnc(N4CCOCC4)c23)cc1C#N (10 µM) | 0 | 0 | 0 | 0 | 0 | 0 | 0 | 0 | 0 | 0 | 0 | 0 | 0 | 0 | 0 | 0 | 0 | 0 | 0 | 0
Cc1ccc(C(=O)Nc2sc(Nc3ccccc3)nc2C(N)=O)cc1 (10 µM) | 0 | 0 | 0 | 0 | 0 | 0 | 0 | 0 | 0 | 0 | 0 | 0 | 0 | 0 | 0 | 0 | 0 | 0 | 0 | 0
COc1cc2ncnc(Nc3ccccc3)c2cc1OC (10 µM) | 0 | 0 | 0 | 0 | 0 | 0 | 0 | 0 | 0 | 0 | 0 | 0 | 0 | 0 | 0 | 0 | 0 | 0 | 0 | 0
O=C1NC(=O)/C(=C/c2ccc3nccc(-c4ccncc4)c3c2)S1 (10 µM) | 0 | 2 | 0 | 0 | 0 | 0 | 0 | 0 | 0 | 0 | 0 | 0 | 0 | 0 | 0 | 0 | 0 | 0 | 4 | 0
C=CC(=O)Nc1cc(-n2c(=O)ccc3cnc4ccc(-c5ccc(NS(C)(=O)=O)cc5)cc4c32)ccc1C (10 µM) | 0 | 0 | 0 | 0 | 0 | 0 | 0 | 0 | 0 | 0 | 0 | 0 | 0 | 0 | 0 | 0 | 0 | 0 | 4 | 0
O=C(N[C@@H](C1CC1)C(F)(F)F)c1cc(-c2cnn3cc(-c4ccc(F)cc4)cnc23)cs1 (10 µM) | 0 | 0 | 0 | 0 | 0 | 0 | 0 | 0 | 0 | 3 | 0 | 0 | 0 | 0 | 0 | 0 | 0 | 0 | 0 | 0
Nc1cccc(-c2cc3c(Oc4cccc(O)c4)ncnc3[nH]2)c1 (10 µM) | 0 | 1 | 0 | 2 | 3 | 1 | 1 | 1 | 2 | 3 | 0 | 0 | 0 | 0 | 0 | 1 | 0 | 2 | 3 | 2
